Assay results published in the supplement of paper PMC10849652.
Some of the results follow.

The chains behind the UniProt entries cited, without tags or fusion partners. Where a name states a change or a piece, a line headed by the entry shows the natural chain unless it says otherwise.
UniProt Q8N3D4: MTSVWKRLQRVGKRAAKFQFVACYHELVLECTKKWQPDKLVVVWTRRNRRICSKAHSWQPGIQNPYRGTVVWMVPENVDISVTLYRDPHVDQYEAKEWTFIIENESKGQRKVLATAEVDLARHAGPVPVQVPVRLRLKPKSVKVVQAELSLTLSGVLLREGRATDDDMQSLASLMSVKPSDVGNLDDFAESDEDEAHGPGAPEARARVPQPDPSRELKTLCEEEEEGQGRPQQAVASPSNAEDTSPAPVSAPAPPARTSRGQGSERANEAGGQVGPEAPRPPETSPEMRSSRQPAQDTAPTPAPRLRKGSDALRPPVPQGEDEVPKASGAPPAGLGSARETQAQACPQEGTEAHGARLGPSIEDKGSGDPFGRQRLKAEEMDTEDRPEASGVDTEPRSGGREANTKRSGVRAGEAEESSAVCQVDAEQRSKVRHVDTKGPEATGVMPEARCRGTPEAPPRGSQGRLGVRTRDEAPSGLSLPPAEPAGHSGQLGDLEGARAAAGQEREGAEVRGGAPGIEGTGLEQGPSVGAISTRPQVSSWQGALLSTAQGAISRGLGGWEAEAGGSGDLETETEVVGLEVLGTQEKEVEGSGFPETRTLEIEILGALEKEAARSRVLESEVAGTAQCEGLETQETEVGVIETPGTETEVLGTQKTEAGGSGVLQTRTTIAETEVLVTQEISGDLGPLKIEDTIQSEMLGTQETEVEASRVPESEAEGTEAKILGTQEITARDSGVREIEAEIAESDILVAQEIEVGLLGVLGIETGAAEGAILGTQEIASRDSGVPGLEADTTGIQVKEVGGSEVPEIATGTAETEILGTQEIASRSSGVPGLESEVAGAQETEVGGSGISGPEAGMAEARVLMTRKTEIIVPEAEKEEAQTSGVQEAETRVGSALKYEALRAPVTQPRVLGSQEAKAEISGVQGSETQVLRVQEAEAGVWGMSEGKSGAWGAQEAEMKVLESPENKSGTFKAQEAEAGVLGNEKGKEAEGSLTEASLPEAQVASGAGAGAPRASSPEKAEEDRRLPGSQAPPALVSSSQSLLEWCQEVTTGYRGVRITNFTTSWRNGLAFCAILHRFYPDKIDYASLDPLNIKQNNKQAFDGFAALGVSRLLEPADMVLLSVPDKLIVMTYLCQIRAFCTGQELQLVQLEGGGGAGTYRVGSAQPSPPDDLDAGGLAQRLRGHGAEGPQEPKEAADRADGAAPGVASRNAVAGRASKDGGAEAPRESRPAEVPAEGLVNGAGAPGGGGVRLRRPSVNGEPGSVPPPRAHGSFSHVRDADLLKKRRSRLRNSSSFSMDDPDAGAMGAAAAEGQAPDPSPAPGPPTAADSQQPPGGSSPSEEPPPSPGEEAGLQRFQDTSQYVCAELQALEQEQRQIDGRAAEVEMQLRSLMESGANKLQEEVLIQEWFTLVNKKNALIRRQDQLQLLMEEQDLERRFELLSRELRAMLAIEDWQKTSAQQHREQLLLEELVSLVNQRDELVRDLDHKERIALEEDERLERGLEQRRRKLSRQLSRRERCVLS
UniProt Q16254: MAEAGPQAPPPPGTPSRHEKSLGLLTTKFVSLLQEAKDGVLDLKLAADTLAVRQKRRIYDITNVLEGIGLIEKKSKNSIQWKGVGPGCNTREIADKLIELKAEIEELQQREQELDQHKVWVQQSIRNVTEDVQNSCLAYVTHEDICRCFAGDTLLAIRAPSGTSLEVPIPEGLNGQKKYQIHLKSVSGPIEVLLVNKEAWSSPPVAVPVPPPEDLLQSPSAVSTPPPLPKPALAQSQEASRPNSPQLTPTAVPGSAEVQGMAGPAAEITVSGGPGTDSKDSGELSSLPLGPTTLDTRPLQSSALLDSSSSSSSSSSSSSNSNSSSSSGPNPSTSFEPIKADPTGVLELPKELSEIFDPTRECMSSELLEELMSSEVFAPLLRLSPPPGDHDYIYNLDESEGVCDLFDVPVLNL
UniProt Q8NDI1: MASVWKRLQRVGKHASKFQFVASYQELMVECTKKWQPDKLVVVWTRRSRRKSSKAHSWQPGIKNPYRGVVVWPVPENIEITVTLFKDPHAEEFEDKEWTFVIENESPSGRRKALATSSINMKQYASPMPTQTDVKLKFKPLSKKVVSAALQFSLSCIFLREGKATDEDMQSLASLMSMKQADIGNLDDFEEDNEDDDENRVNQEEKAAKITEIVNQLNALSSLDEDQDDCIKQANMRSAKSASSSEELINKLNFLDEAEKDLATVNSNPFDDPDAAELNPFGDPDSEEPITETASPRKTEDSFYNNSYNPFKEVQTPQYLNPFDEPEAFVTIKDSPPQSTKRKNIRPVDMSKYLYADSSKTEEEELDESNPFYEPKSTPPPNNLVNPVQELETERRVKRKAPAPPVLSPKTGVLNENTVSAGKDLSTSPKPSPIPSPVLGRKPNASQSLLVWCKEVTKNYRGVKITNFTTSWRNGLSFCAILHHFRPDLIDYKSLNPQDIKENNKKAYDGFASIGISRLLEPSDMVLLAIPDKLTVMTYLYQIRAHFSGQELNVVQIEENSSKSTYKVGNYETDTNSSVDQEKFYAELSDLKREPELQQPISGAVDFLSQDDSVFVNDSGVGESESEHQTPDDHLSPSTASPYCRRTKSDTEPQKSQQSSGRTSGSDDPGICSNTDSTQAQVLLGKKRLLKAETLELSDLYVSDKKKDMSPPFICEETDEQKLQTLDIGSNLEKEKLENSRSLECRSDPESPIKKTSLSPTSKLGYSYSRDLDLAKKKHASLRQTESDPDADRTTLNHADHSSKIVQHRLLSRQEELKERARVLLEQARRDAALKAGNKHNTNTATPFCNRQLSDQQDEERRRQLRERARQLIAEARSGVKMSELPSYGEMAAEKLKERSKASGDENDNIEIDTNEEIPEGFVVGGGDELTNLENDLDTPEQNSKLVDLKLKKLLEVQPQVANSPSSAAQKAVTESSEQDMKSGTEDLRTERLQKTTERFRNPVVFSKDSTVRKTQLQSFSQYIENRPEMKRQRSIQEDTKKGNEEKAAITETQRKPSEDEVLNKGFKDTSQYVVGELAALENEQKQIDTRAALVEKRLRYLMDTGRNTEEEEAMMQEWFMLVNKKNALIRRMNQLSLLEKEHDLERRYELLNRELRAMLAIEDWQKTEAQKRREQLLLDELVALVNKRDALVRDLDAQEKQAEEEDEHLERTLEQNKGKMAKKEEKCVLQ
EEF1AKMT2, A0A494BZY7, UniProt A0A494BZY7, whole entry, looked up: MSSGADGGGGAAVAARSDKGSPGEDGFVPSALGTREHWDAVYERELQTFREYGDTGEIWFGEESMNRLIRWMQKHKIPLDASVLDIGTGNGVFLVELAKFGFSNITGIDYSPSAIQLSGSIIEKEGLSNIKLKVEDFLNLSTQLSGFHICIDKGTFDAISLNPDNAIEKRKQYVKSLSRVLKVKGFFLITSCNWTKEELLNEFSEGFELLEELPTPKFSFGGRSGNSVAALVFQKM
UniProt Q6P2E9: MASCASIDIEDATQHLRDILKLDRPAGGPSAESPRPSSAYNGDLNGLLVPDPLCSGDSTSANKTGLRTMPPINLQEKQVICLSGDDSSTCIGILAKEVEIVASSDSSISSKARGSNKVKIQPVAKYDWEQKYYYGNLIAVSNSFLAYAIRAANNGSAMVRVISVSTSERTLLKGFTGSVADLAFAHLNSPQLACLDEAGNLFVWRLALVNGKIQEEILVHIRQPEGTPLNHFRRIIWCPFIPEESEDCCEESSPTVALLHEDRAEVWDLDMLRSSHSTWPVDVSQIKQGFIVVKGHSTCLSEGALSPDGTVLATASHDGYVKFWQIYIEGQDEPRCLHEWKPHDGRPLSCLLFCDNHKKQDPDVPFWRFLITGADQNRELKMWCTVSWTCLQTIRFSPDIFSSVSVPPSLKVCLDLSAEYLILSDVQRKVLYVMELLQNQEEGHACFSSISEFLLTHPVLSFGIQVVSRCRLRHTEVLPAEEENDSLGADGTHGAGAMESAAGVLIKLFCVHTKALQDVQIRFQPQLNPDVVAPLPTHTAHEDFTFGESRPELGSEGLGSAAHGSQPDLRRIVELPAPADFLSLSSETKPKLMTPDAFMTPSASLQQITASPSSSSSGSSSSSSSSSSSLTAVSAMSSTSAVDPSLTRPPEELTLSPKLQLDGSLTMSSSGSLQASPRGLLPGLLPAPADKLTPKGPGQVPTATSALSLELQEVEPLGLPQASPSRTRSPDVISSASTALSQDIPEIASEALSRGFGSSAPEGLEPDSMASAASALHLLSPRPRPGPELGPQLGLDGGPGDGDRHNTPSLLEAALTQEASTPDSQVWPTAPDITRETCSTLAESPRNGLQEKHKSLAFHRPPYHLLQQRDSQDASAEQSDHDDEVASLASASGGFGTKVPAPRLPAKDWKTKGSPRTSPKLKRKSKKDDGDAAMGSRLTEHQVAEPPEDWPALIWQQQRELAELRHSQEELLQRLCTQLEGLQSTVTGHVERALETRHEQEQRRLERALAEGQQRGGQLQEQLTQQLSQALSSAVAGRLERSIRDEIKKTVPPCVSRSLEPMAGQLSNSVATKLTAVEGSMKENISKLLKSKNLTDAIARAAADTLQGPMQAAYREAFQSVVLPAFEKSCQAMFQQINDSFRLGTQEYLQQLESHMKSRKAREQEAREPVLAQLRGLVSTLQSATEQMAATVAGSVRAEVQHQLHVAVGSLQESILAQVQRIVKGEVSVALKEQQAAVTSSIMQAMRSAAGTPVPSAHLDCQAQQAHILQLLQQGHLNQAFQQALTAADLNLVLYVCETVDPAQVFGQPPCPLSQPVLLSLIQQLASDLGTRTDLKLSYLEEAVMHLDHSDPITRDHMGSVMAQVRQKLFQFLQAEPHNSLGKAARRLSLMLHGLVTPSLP
UniProt Q56P03: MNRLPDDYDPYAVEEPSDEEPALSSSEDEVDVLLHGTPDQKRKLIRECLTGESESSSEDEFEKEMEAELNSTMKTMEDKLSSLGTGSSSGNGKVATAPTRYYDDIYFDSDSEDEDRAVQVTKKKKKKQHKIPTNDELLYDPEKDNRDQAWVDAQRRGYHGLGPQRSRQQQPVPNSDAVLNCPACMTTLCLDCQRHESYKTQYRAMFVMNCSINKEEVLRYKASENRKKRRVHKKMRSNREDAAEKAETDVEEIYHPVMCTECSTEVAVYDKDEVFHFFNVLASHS
UniProt O43324: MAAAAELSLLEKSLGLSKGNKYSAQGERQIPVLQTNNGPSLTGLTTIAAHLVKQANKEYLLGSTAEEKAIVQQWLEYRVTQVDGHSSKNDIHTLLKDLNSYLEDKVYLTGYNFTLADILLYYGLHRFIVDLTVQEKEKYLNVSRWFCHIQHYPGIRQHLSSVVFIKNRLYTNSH
UniProt P26641, whole entry, looked up: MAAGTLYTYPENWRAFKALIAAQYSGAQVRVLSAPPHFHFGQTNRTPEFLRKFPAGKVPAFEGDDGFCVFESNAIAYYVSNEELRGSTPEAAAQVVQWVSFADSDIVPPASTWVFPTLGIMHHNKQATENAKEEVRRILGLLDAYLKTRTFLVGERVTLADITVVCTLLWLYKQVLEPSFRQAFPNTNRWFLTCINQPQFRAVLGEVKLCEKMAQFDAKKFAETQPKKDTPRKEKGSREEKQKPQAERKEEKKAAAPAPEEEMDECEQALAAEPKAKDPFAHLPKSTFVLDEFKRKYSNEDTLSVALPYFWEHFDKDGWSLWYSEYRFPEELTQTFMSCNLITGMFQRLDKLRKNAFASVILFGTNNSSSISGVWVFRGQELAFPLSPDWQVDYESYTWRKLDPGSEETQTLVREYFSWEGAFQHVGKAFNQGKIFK
UniProt Q9BV94: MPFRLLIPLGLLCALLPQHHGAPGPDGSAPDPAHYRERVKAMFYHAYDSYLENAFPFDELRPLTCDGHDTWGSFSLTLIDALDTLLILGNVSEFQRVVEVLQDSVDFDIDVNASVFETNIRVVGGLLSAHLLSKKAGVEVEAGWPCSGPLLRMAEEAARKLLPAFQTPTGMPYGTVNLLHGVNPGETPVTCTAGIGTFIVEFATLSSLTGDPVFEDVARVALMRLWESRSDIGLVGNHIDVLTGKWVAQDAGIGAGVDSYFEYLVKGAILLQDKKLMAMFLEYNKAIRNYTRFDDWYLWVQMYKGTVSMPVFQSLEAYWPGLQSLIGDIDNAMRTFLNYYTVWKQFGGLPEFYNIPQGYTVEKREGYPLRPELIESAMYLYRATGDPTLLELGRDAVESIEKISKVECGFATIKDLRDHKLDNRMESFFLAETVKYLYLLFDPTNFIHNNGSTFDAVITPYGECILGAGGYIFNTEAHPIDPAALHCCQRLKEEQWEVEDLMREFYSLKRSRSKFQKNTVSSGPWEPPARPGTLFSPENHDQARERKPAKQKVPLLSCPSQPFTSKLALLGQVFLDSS
UniProt Q7L8W6: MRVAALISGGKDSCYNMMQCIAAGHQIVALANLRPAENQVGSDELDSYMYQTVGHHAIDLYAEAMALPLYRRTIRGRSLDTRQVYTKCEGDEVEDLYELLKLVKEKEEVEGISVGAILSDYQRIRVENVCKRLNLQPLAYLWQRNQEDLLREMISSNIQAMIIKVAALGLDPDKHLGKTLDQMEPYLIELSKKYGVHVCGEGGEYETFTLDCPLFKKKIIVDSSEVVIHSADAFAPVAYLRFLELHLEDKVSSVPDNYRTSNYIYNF

Legend:
Assay in all cases: log2 fold change, soluble protein after heating vs DMSO (PISA); higher = thermal stabilisation; K562 lysate, 10 uM; active = over 0.2 and 3.5 SD of the protein, either way, in both replicates (recomputed)
[1] = compound: NCC(=O)Nc1ccc(-n2nc(C(F)(F)F)cc2-c2ccc3c(ccc4ccccc43)c2)cc1
Method in brief: (§1)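 Dounce homogenisation of K562 pellets in PBS pH 7.4 with 1 mM MgCl2 produced a crude extract, used at 1 mg/mL protein. Exposure to 10 μM compound lasted 30 min, and aliquots were then heated for 3 min across 48°C-58°C, pooled and brought to 0.5% NP-40 at 4°C. The supernatant after 21,000xg for 90 min was quantified by TMTpro 16plex LC-MS/MS with channel sums equalised. Duplicate values are given as log-two fold change in thermal stability relative to solvent controls.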

vorinostat = compound: O=C(CCCCCCC(=O)Nc1ccccc1)NO [vorinostat]
Method in brief: as §1

silmitasertib = compound: O=C(O)c1ccc2c(c1)nc(Nc1cccc(Cl)c1)c1ccncc12 [silmitasertib]
Method in brief: as §1

[2] = compound: O=C1NC(=O)C(c2cnc3ccccn23)=C1c1cn2c3c(cc(F)cc13)CN(C(=O)N1CCCCC1)CC2
Method in brief: as §1

entospletinib = compound: c1cn2cc(-c3ccc4cn[nH]c4c3)nc(Nc3ccc(N4CCOCC4)cc3)c2n1 [entospletinib]
Method in brief: as §1

Measured: log2 fold change

DPP3 (UniProt Q9NY33)
inactive: [1] -0.024 | vorinostat 0.095 | silmitasertib 0.021 | [2] 0.042 | entospletinib 0.002

ECSIT (UniProt Q9BQ95)
inactive: [1] 0.017 | vorinostat 0.137 | silmitasertib -0.004 | [2] -0.041 | entospletinib 0.068

DYNLL1 (UniProt P63167)
inactive: [1] -0.057 | vorinostat -0.089 | silmitasertib -0.017 | [2] 0.025 | entospletinib 0.022

DPH1 (UniProt Q9BZG8)
inactive: [1] -0.019 | vorinostat 0.064 | silmitasertib 0 | [2] 0.001 | entospletinib -0.021

DYSF isoform 13 (UniProt O75923)
inactive: [1] 0.069 | vorinostat -0.013 | silmitasertib 0.233 | [2] 0.018 | entospletinib -0.12

EAF1 (UniProt Q96JC9)
inactive: [1] -0.082 | vorinostat 0.121 | silmitasertib -0.086 | [2] 0.044 | entospletinib 0.029

DUS3L (UniProt Q96G46)
inactive: [1] 0.002 | vorinostat -0.08 | silmitasertib 0.036 | [2] -0.007 | entospletinib 0.014

EHD4 (UniProt Q9H223)
inactive: [1] 0.036 | vorinostat -0.149 | silmitasertib 0.076 | [2] 0.029 | entospletinib -0.012

EDRF1 (UniProt Q3B7T1)
inactive: [1] 0.05 | vorinostat -0.021 | silmitasertib -0.001 | [2] -0.019 | entospletinib -0.071

EHBP1L1 (UniProt Q8N3D4)
inactive: [1] 0.024 | vorinostat -0.09 | silmitasertib 0.059 | [2] -0.011 | entospletinib -0.018

E2F4 (UniProt Q16254)
inactive: [1] 0.022 | vorinostat -0.17 | silmitasertib 0.016 | [2] 0.019 | entospletinib -0.027

EHBP1 isoform 2 (UniProt Q8NDI1)
inactive: [1] -0.046 | vorinostat -0.012 | silmitasertib 0.02 | [2] -0.005 | entospletinib -0.02

EEF1AKMT2, A0A494BZY7
inactive: [1] 0.088 | vorinostat 0.035 | silmitasertib 0.004 | [2] 0.045 | entospletinib 0.013

Taken from the entries so far (2 entries):
EHBP1L1 (UniProt Q8N3D4)
inactive: [1] 0.024 | vorinostat -0.09 | silmitasertib 0.059 | [2] -0.011 | entospletinib -0.018

E2F4 (UniProt Q16254)
inactive: [1] 0.022 | vorinostat -0.17 | silmitasertib 0.016 | [2] 0.019 | entospletinib -0.027

Next records follow.

EBP (UniProt Q15125)
inactive: [1] 0.134 | vorinostat 0.1 | silmitasertib -0.033 | [2] 0.097 | entospletinib 0.013

EDC4 (UniProt Q6P2E9)
active: vorinostat -0.453
inactive: [1] 0.045 | silmitasertib 0.011 | [2] 0.004 | entospletinib 0.02

EARS2 (UniProt Q5JPH6)
inactive: [1] 0.034 | vorinostat -0.184 | silmitasertib -0.046 | [2] 0.013 | entospletinib -0.13

EED, A0A5F9ZI63
inactive: [1] -0.022 | silmitasertib 0.043 | [2] -0.018 | entospletinib 0.009
active: vorinostat -0.227

DSTN (UniProt P60981)
active: vorinostat -0.34
inactive: [1] -0.012 | silmitasertib 0.014 | [2] -0.031 | entospletinib -0.021

ECT2 (UniProt Q9H8V3)
inactive: [1] 0.067 | vorinostat -0.06 | silmitasertib 0.048 | [2] -0.032 | entospletinib -0.044

DR1 (UniProt Q01658)
inactive: [1] 0.019 | vorinostat 0.122 | silmitasertib -0.06 | [2] 0.035 | entospletinib 0.057

EAPP (UniProt Q56P03)
inactive: [1] -0.083 | vorinostat 0.029 | silmitasertib -0.086 | [2] 0.024 | entospletinib 0.024

DRG2 (UniProt P55039)
inactive: [1] 0.004 | vorinostat -0.072 | silmitasertib 0.023 | [2] 0.029 | entospletinib 0.035

EEF1E1 (UniProt O43324)
inactive: [1] -0.018 | vorinostat -0.233 | silmitasertib -0.012 | [2] 0.01 | entospletinib 0.012

EEF1G isoform 2 (UniProt P26641)
inactive: [1] -0.048 | vorinostat -0.145 | silmitasertib 0.038 | [2] -0.023 | entospletinib 0.016

EDEM2 (UniProt Q9BV94)
inactive: [1] -0.017 | vorinostat 0.041 | silmitasertib 0.064 | [2] -0.195 | entospletinib -0.051

EEF1A2 (UniProt Q05639)
inactive: [1] 0.023 | vorinostat -0.201 | silmitasertib -0.003 | [2] 0.003 | entospletinib 0.026

ECI1 (UniProt P42126)
inactive: [1] -0.039 | vorinostat 0.123 | silmitasertib -0.002 | [2] -0.013 | entospletinib 0

DPH5 isoform 5 (UniProt Q9H2P9)
inactive: [1] -0.046 | vorinostat -0.06 | silmitasertib -0.015 | [2] 0.077 | entospletinib -0.011

DPH6 (UniProt Q7L8W6)
inactive: [1] -0.029 | vorinostat -0.17 | silmitasertib 0 | [2] -0.035 | entospletinib -0.011

EFCAB3 (UniProt Q8N7B9)
inactive: vorinostat -0.159 | silmitasertib 0.095 | [2] -0.09

DPH3 (UniProt Q96FX2)
inactive: [1] -0.038 | [2] 0.059 | entospletinib 0.01

DYRK1A isoform 2 (UniProt Q13627)
inactive: vorinostat -0.222 | silmitasertib -0.035 | [2] 0.002
